Source: PubChem BioAssay AID652243 (Drosophila RNAi Screening Center, 2013)

Aim: 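Fly genes required for human androgen receptor driven transcription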 (primary screen)
System: Drosophila S2R+ cells
Reagent: long dsRNA against Drosophila genes
Time to read-out: 72 h (48 h, then 24 h hormone)
Conditions: synthetic androgen R1881 at 10 nM for 24 h
Measurement: 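Per-well raw luminescence of the androgen-driven firefly reporter and of the Renilla control, two replicates each, without normalisation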
Scale: firefly reporter light: higher = more light from androgen-responsive reporter; Renilla control light: higher = more constitutive control signal (cell number, transfection)
Hit rule: 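Across duplicate plates, a knock-down whose log firefly/Renilla ratio shifted a set fold down or up from the GFP/LacZ control mean was a hit; the downward cut appears as both 1.5 and 3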
Calls: active = hit: reporter lowered or raised; inactive = no hit
The screen tested about 24,000 reagents; shown is an unselected part of those with a known target gene and a result. Of all reagents, 246 (1%) are marked active. 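Plates not normalised; calls are printed but the firefly/Renilla ratio behind them is not deposited; fold cut for lowering reported inconsistently.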 Raw values are not corrected between plates. Unmarked entries are inactive. The numbers tell different reagents against one gene apart. Not given: the amount of reagent.

For CG32808 #1, how do the results read?
firefly reporter light, replicate 1: 6.87e5; firefly reporter light, replicate 2: 6.31e5; Renilla control light, replicate 1: 1.76e6; Renilla control light, replicate 2: 1.05e6

What is on record for CG32808 #2?
firefly reporter light, replicate 1: 3.69e5; firefly reporter light, replicate 2: 2.90e5; Renilla control light, replicate 1: 1.23e6; Renilla control light, replicate 2: 1.19e6

For wcd (wicked), how do the results read?
firefly reporter light, replicate 1: 9.98e5; firefly reporter light, replicate 2: 8.31e5; Renilla control light, replicate 1: 2.37e6; Renilla control light, replicate 2: 2.01e6

Which result is listed for fal (falten)?
firefly reporter light, replicate 1: 26184; firefly reporter light, replicate 2: 14828; Renilla control light, replicate 1: 2.65e5; Renilla control light, replicate 2: 1.85e5

What is on record for CG10553?
firefly reporter light, replicate 1: 2.83e5; firefly reporter light, replicate 2: 2.00e5; Renilla control light, replicate 1: 3.26e6; Renilla control light, replicate 2: 3.00e6

A portion from the list above, as a working copy:
CG32808 #2 | firefly reporter light, replicate 1 = 3.69e5; firefly reporter light, replicate 2 = 2.90e5; Renilla control light, replicate 1 = 1.23e6; Renilla control light, replicate 2 = 1.19e6
wcd (wicked) | firefly reporter light, replicate 1 = 9.98e5; firefly reporter light, replicate 2 = 8.31e5; Renilla control light, replicate 1 = 2.37e6; Renilla control light, replicate 2 = 2.01e6

Next records follow:
How did the screen score mam (mastermind) #1?
firefly reporter light, replicate 1: 1.24e5; firefly reporter light, replicate 2: 1.62e5; Renilla control light, replicate 1: 5.38e5; Renilla control light, replicate 2: 3.92e5

For mam (mastermind) #2, how do the results read?
firefly reporter light, replicate 1: 6.51e5; firefly reporter light, replicate 2: 7.54e5; Renilla control light, replicate 1: 8.12e5; Renilla control light, replicate 2: 1.23e6

For mam (mastermind) #3, what was measured?
firefly reporter light, replicate 1: 2.99e5; firefly reporter light, replicate 2: 2.09e5; Renilla control light, replicate 1: 7.78e5; Renilla control light, replicate 2: 5.18e5

What is on record for Vha36-2 (Vacuolar H[+] ATPase 36kD subunit 2) #1?
firefly reporter light, replicate 1: 1.69e5; firefly reporter light, replicate 2: 2.02e5; Renilla control light, replicate 1: 1.32e6; Renilla control light, replicate 2: 1.38e6

For Vha36-2 (Vacuolar H[+] ATPase 36kD subunit 2) #2, what does the deposit list?
firefly reporter light, replicate 1: 1.09e6; firefly reporter light, replicate 2: 8.66e5; Renilla control light, replicate 1: 1.32e6; Renilla control light, replicate 2: 1.12e6

For CG4768, how do the results read?
firefly reporter light, replicate 1: 5.36e5; firefly reporter light, replicate 2: 4.00e5; Renilla control light, replicate 1: 1.65e6; Renilla control light, replicate 2: 1.50e6

What did the screen give for Mlf (Myelodysplasia/myeloid leukemia factor) #1?
firefly reporter light, replicate 1: 38128; firefly reporter light, replicate 2: 40149; Renilla control light, replicate 1: 7.46e5; Renilla control light, replicate 2: 7.46e5

How did the screen score Mlf (Myelodysplasia/myeloid leukemia factor) #2?
firefly reporter light, replicate 1: 3.13e5; firefly reporter light, replicate 2: 4.76e5; Renilla control light, replicate 1: 3.76e5; Renilla control light, replicate 2: 3.98e5

For Pldn (Pallidin) #1, what was measured?
firefly reporter light, replicate 1: 3.01e5; firefly reporter light, replicate 2: 3.12e5; Renilla control light, replicate 1: 3.54e6; Renilla control light, replicate 2: 2.72e6

What did the screen give for Pldn (Pallidin) #2?
firefly reporter light, replicate 1: 4.93e5; firefly reporter light, replicate 2: 7.32e5; Renilla control light, replicate 1: 1.34e6; Renilla control light, replicate 2: 2.04e6
